Experimental data: patent US20160256523A1
No constants are given. Whether binding was seen depends on the method and setting. In cells and extracts the contact can be indirect. Some entries that bind do so weakly or less than the wild type.

Sequences of proteins named here, by UniProt entry; tags and fusion partners are left off. A change or cut given only in a name is not applied to a line headed by its entry. Residues count along the entry.
UniProt P13612: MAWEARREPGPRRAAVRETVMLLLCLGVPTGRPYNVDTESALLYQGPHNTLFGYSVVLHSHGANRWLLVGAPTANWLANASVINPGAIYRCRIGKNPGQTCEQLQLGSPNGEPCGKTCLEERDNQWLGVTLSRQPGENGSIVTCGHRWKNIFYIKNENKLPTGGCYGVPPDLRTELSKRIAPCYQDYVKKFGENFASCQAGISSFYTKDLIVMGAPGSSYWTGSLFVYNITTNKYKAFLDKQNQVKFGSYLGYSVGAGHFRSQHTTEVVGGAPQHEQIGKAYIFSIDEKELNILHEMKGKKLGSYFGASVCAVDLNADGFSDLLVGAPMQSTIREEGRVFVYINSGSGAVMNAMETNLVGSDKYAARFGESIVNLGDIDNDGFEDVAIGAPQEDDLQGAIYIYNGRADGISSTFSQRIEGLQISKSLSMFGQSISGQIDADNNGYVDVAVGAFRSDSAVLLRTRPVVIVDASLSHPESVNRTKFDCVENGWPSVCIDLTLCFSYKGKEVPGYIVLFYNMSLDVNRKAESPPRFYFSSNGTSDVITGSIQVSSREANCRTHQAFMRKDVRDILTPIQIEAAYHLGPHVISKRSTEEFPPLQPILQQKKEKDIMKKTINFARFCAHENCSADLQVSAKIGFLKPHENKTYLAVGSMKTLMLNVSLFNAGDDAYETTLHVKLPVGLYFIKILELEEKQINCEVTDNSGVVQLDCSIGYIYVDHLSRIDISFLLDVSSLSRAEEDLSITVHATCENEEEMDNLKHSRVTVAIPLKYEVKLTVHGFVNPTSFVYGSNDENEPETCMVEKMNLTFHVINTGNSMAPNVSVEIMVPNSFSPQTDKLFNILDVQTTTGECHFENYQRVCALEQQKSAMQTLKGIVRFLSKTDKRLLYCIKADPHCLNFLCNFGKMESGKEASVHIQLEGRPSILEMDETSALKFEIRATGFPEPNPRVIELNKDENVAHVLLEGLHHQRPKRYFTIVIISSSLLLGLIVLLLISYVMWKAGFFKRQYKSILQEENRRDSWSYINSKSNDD
UniProt P05556: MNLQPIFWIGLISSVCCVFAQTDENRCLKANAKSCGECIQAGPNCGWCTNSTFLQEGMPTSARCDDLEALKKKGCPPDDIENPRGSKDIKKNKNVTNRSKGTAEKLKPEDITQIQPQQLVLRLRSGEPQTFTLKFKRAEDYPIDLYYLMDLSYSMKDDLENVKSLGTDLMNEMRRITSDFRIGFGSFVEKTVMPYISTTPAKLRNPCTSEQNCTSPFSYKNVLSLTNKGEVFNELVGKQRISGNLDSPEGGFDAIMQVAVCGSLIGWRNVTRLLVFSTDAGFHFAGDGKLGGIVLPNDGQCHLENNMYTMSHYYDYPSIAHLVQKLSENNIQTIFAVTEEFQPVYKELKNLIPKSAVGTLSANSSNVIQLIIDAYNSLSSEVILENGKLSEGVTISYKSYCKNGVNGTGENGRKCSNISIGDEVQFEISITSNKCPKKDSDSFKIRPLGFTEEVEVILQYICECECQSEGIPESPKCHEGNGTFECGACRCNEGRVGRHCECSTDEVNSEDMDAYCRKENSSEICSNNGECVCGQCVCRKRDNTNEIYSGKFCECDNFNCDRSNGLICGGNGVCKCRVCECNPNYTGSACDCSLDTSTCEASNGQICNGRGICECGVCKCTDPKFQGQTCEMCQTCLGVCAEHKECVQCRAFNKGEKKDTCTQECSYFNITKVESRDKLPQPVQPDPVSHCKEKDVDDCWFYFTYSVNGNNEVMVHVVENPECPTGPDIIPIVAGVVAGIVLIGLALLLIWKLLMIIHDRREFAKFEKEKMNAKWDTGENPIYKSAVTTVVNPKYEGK
UniProt P35968, residues 20-1356: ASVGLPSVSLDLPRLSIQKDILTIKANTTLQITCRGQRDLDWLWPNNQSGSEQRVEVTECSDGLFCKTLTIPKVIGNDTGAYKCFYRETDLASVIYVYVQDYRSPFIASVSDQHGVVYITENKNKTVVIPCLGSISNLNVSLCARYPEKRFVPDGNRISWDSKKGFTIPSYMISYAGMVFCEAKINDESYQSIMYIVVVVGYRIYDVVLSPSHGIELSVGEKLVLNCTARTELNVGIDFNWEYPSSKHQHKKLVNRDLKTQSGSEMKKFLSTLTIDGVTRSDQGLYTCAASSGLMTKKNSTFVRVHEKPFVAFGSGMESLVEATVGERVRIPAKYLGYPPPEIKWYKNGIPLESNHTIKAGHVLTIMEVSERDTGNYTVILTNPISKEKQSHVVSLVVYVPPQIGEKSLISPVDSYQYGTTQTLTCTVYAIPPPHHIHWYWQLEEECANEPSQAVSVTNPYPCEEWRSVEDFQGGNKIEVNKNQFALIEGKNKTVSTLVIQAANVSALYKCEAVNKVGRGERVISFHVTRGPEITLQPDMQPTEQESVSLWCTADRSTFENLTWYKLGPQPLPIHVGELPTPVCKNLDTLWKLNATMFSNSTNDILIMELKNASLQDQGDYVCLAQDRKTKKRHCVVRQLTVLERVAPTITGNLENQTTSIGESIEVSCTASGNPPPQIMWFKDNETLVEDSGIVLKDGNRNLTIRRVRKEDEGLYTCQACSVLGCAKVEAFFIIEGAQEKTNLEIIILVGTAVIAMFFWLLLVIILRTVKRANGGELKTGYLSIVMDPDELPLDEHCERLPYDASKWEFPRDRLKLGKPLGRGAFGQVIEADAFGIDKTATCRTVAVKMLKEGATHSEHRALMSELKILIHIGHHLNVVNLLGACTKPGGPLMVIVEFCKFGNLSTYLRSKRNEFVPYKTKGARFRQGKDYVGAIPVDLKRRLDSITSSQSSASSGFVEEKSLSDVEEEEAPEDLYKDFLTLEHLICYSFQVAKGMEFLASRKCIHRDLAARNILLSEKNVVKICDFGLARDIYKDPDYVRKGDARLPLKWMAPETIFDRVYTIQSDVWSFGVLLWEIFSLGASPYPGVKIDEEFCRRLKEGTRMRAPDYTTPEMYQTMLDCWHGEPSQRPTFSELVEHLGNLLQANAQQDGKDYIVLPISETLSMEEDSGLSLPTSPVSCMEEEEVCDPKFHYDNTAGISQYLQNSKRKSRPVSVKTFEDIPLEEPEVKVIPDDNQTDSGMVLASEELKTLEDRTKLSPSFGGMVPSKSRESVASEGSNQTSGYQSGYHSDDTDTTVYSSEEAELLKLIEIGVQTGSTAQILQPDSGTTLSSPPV

Columns and labels:
[1] = target: T1, VLA-4 (very late antigen-4, α4β1 integrin), human (human) (UniProt P13612+P05556); assay: GST pull-down on glutathione beads from CAG myeloma cell lysate, immunoblot
[2] = target: vascular endothelial growth factor receptor-2 (VEGFR2), human (human) (UniProt P35968); assay: as above
[3] = target: T1, VLA-4 (very late antigen-4, α4β1 integrin), human (human); assay: GST pull-down on glutathione beads from HMEC-1 cell lysate, immunoblot
[4] = target: vascular endothelial growth factor receptor-2 (VEGFR2), human (human) (UniProt P35968); assay: as above

binding [1]: binds
binding [2]: binds
binding [3]: binds
binding [4]: binds
Substance: recombinant GST-tagged Sdc1 ectodomain (GST-S1ED) (from UniProt P08515 1-218; P18828 23-255)
